# Experimental data taken from PubChem BioAssay AID504467 (National Center for Advancing Translational Sciences (NCATS), 2011).
# Among all 330,000 compounds or so, about 7,700 (2.3%) were called active. The inconclusive results got no clear call from the source; some entries with a clear call stand among them for comparison. The call rests on the fitted dose curve; in most records, active means well fitted inhibition curve with a large enough effect; inconclusive means small, poorly fitted or top-dose-only effect, or effect the other way; inactive means flat fitted curve, though single readings scatter. Where the call is inconclusive, the potency comes from a doubtful curve fit.
# Assay: qHTS screen for small molecules that inhibit ELG1-dependent DNA repair in human embryonic kidney (HEK293T) cells expressing luciferase-tagged ELG1; further: nearly all actives have a fitted effect of over 55% in size
# Conditions: HEK293T ELG1-luciferase reporter, luminescence, 16 h, DNA damage induced by 5-fluorouridine; series mostly up to 46.1 µM
# In short: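 Cells (2,000 per well) received 5-fluorouridine plus test compound or DMSO and were incubated 16 hr at 37 °C, 5% CO2. Luciferase activity was read by luminescence 30 min after ONE-Glo addition; signal suppression marked inhibition of damage-induced ELG1 function.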
# Potency means the concentration at half of the fitted maximal effect.
row,SMILES,Potency
1,COc1ccc(-c2nc3ccc(N4CCN(C)CC4)cc3c(=O)[nH]2)cc1,inactive
2,CCC1CCCCN1S(=O)(=O)c1ccc2c(c1)CCN2C(=O)C1CCC1 (stereo not drawn),"inconclusive: 5.17 µM [inhibitor, partial curve]"
3,CCCCC(=O)N/N=C/c1ccc(Sc2cccc3cccnc23)o1,"inconclusive: 25.9 µM [inhibitor, partial curve, poor fit]"
4,O=C(N/N=C/c1ccccn1)c1cc([N+](=O)[O-])cc([N+](=O)[O-])c1,inactive
5,COc1cccc(/C=N/n2c(C)nc3ccccc3c2=O)c1O,inactive
6,N#Cc1ccc(C#Cc2ccc3oc4ccccc4c(=O)c3c2)cc1,"inconclusive: 29.1 µM [activator, single point]"
7,CCN1CCN(c2ccc(S(=O)(=O)N3CCCCC3)cc2NC(=O)/C=C/c2cc(OC)ccc2OC)CC1,"inconclusive: 29.1 µM [activator, single point]"
8,COc1cc(CCN2C(=O)c3cccc4cccc(c34)C2=O)c(S(=O)(=O)NCCO)cc1OC,active: 4.61 µM
9,COc1cccc(CNC(=S)NC2CC2)c1,inactive
10,N#Cc1ccc(CN2CCN(C(=O)CC(NC(=O)c3ccccc3)c3ccccc3)CC2)cc1 (stereo not drawn),inactive
11,CC1CCCN(C(=O)c2ccc3ncsc3c2)C1 (stereo not drawn),"inconclusive: 29.1 µM [activator, single point]"
12,COc1ccc(C(=O)C2CCCN(Cc3c(O)cccc3OC)C2)cc1OC (stereo not drawn),inactive
13,CCCn1c(=O)c(C(=O)NC(C)c2ccccc2)c(O)c2ccccc21 (stereo not drawn),inactive
14,Nc1nonc1-c1nc2ccccc2[nH]1,"inconclusive: 16.4 µM [activator, single point]"
15,COc1ccc2[nH]c3c(=O)n(Cc4ccc(C(=O)NCC5CCCO5)cc4)c(=S)[nH]c3c2c1 (stereo not drawn),"inconclusive: 6.51 µM [inhibitor, single point]"
16,CN1CCC(N(C)S(=O)(=O)c2ccc(NC(=O)COc3ccc(F)cc3)cc2)CC1,"inconclusive: 23.1 µM [activator, single point]"
17,CCCn1c(N)c(C(=O)CSc2nnc(-c3cccnc3)n2-c2ccc(C)cc2C)c(=O)[nH]c1=O,"inconclusive: 25.9 µM [inhibitor, partial curve, poor fit]"
18,O=C1C(Cc2ccccc2)Nc2ncnc(N3CCN(c4ccccc4)CC3)c2N1Cc1ccc(Cl)cc1 (stereo not drawn),inactive
19,CCNC(=O)NC(=O)C(C)OC(=O)c1cc(S(=O)(=O)N2CCCCCC2)ccc1OC (stereo not drawn),active: 23.1 µM
20,COc1ccccc1CN1CCCC(C(=O)N(C)Cc2ccccc2)C1 (stereo not drawn),inactive
21,Cc1ccc(NC(=O)CN(C)C(=O)COc2ccc(C(=O)c3ccc(F)cc3)cc2)cc1,"inconclusive: 29.1 µM [inhibitor, single point]"
22,Cc1ccc(C(=O)Nc2nnc(-c3ccco3)o2)cc1,"inconclusive: 10.3 µM [activator, partial curve]"
23,O=C(c1c[nH]c2ccc(S(=O)(=O)N3CCOCC3)cc2c1=O)N1CCN(c2ccccn2)CC1,"inconclusive: 7.31 µM [activator, partial curve, poor fit]"
24,CCCCCOc1ccc(OC(=O)c2ccncc2)cc1,inactive
25,CCC(C)(C)NC(=O)C(c1ccc(OC)cc1)N(Cc1ccc(OC)cc1)C(=O)CCC(=O)Nc1cc(C)on1 (stereo not drawn),inactive

row,SMILES,Potency
1,COc1ccc(CCN2CC(C(=O)Nc3ccccc3F)CC2=O)cc1OC (stereo not drawn),"inconclusive: 1.16 µM [inhibitor, single point]"
2,CN1CCN(NC(=S)Nc2ccc(Oc3ccccc3)cc2)CC1,"inconclusive: 2.91 µM [inhibitor, full curve]"
3,O=C(Nc1nc(-c2ccccn2)cs1)c1ccc(S(=O)(=O)N2CCCCC2)cc1,active: 0.651 µM
4,Cn1c(=O)c2c(nc(NCCO)n2C)n(C)c1=O,inactive
5,COc1ccc2c(CC(=O)Nc3nc(C)cs3)coc2c1,"inconclusive: 16.4 µM [inhibitor, single point]"
6,COc1ccc(C2C(C(=O)OC3CCCCC3)=C(C)Nc3nnnn32)c(OC)c1OC (stereo not drawn),"inconclusive: 25.9 µM [inhibitor, partial curve, poor fit]"
7,CC1(C)Cc2cccc(OCC(=O)Nc3ccccc3N3CCOCC3)c2O1,"inconclusive: 29.1 µM [inhibitor, single point]"
8,Cc1onc(-c2ccccc2)c1C(=O)OCC(=O)Nc1cc(S(=O)(=O)N2CCOCC2)ccc1Cl,"inconclusive: 32.6 µM [inhibitor, single point]"
9,N=C1C(=O)OCC1c1ccccc1NC(=O)Nc1ccccc1 (stereo not drawn),inactive
10,CCS(=O)(=O)N1CCC2(CC1)OCCN2S(=O)(=O)c1ccc(C)cc1,inactive
11,CCOC(=O)c1sc(/N=C/c2ccc(O)cc2O)cc1C,inactive
12,Cc1ccc(NC(=O)c2ccc(CN3CCc4ccccc4C3)cc2)cc1,inactive
13,CCOc1cc(NC(=S)NCC2CCCO2)c(OCC)cc1NC(=O)c1ccccc1 (stereo not drawn),"inconclusive: 25.9 µM [inhibitor, single point]"
14,N/C(=N\NS(=O)(=O)c1ccccc1C(F)(F)F)c1ccccn1,"inconclusive: 23.1 µM [inhibitor, single point]"
15,COc1ccc(CCNC(=O)C/C(C)=N/NC(=O)C2CCCCC2)cc1OC,inactive
16,CCn1c(Oc2ccccc2C)nc2c1c(=O)n(C)c(=O)n2C,"inconclusive: 14.6 µM [inhibitor, partial curve]"
17,O=C(CCN1CCN(C/C=C/c2ccccc2)CC1)Nc1cccc(F)c1,"inconclusive: 16.4 µM [inhibitor, single point]"
18,Cc1ccnc(NC(=O)C2CCN(S(=O)(=O)c3ccc(Cl)c(C(F)(F)F)c3)CC2)c1,inactive
19,O=C(NCc1ccc(Cl)cc1)C1CCN(S(=O)(=O)c2ccc(F)cc2)CC1,inactive
20,CCn1cc(CN2CCCC(C(=O)Nc3cccc(-c4cc5ccccc5[nH]4)c3)C2)c(C)n1 (stereo not drawn),inactive
21,O=C(Cn1ccc2ccccc2c1=O)N1CCN(Cc2ccc3c(c2)OCO3)CC1,"inconclusive: 14.6 µM [inhibitor, partial curve]"
22,CCN1CCN(c2ncnc3scc(-c4ccc(C)c(C)c4)c23)CC1,"inconclusive: 16.4 µM [inhibitor, partial curve, poor fit]"
23,CCc1nn(C(C)C(=O)N2CC(C)CC(C)C2)c(=O)c2cc3occc3n12 (stereo not drawn),inactive
24,CC(=O)c1c(C)oc2ccc(N(C(=O)C3CCCCC3)S(=O)(=O)c3cc([N+](=O)[O-])ccc3C)cc12,"inconclusive: 1.16 µM [inhibitor, single point]"
25,COc1ccc(NC(=O)CC2C(=O)Nc3ccccc3N2CC(=O)N2CCCC2)cc1 (stereo not drawn),inactive

# Of the compounds above, these contain a Cl atom:
row,SMILES,Potency
18,O=C1C(Cc2ccccc2)Nc2ncnc(N3CCN(c4ccccc4)CC3)c2N1Cc1ccc(Cl)cc1 (stereo not drawn),inactive
8,Cc1onc(-c2ccccc2)c1C(=O)OCC(=O)Nc1cc(S(=O)(=O)N2CCOCC2)ccc1Cl,"inconclusive: 32.6 µM [inhibitor, single point]"
18,Cc1ccnc(NC(=O)C2CCN(S(=O)(=O)c3ccc(Cl)c(C(F)(F)F)c3)CC2)c1,inactive
19,O=C(NCc1ccc(Cl)cc1)C1CCN(S(=O)(=O)c2ccc(F)cc2)CC1,inactive

# (cont.)

row,SMILES,Potency
1,COc1ccc(/C=N/NC(=O)c2ccc(Br)o2)cc1Cn1cc([N+](=O)[O-])cn1,"inconclusive: 29.1 µM [inhibitor, single point]"
2,COc1ccc(/C=N/NC(=O)c2ccc(CN3C(=O)c4cccc5cccc3c45)cc2)cc1O,"inconclusive: 23.1 µM [inhibitor, single point]"
3,O=C(Cn1ncc2c3ccccc3n(Cc3ccccc3F)c2c1=O)NC1CC1,"inconclusive: 20.6 µM [activator, partial curve, poor fit]"
4,Cc1ccc2oc(=O)n(CCOc3ccccc3)c2c1,"inconclusive: 25.9 µM [activator, single point]"
5,CCOC(=O)c1c(NC(=O)c2cccs2)sc(C(=O)N(C)C)c1C,"inconclusive: 29.1 µM [inhibitor, single point]"
6,Cc1cccc(C)c1OCc1cc(C(=O)N2CCN(c3ccccn3)CC2)no1,"inconclusive: 13 µM [activator, partial curve]"
7,COc1ccccc1/C=C\C(=O)NCC(=O)N/N=C/c1cccc(OC)c1O,inactive
8,CCc1cc2cc(C(=O)Nc3ccc(C)cc3)sc2s1,"inconclusive: 14.6 µM [activator, partial curve]"
9,COc1ccc(CC(=O)NCc2nnc(SCC(=O)Nc3ccc(OC)cc3)n2C)cc1,inactive
10,CSc1ncc(Cl)c(C(=O)Nc2ccc(S(=O)(=O)N3CCOCC3)cc2)n1,"inconclusive: 20.6 µM [inhibitor, partial curve, poor fit]"
11,O=C(c1ccc(Cl)c([N+](=O)[O-])c1)N1CCN(c2ccccn2)CC1,inactive
12,O=C(CSc1nnc2ccc(-c3ccccc3)nn12)NCC1CCCO1 (stereo not drawn),inactive
13,CC(C)(C)c1ccc(OCC(=O)NCc2ccco2)c(Br)c1,"inconclusive: 6.51 µM [activator, single point]"
14,O=[N+]([O-])c1cccc(-c2cc(-c3cc(Br)ccc3O)[nH]n2)c1,active: 16.4 µM
15,CSCCC(NS(=O)(=O)c1ccc(C)cc1)C(=O)N1CCN(S(=O)(=O)c2ccc(F)cc2)CC1 (stereo not drawn),inactive
16,OC(COCCC12CC3CC(CC(C3)C1)C2)CN1CCCC1 (stereo not drawn),inactive
17,Cc1ccc(C)c(N2CCN(C(=O)c3ccc(CS(=O)(=O)c4ccccc4C)o3)CC2)c1,active: 25.9 µM
18,CCCC(=O)Nc1nnc(S(=O)(=O)N(CC)c2ccc(OC)cc2)s1,inactive
19,C=C(C)COc1ccc(-c2n[nH]c(C)c2Oc2ccccc2OC)c(O)c1,"inconclusive: 18.4 µM [inhibitor, single point]"
20,O=C(NC(C1CC1)C1CC1)C1CCC(=O)N(CCCN2CCCC2=O)C1 (stereo not drawn),inactive
21,COc1cc(SC)ccc1C(=O)NCc1ccccc1,inactive
22,N#CC1=C(N)NC(SCC(=O)Nc2ccccc2)=C(C#N)C12CCCCC2,"inconclusive: 25.9 µM [inhibitor, partial curve, poor fit]"
23,Cc1csc2nc(CSc3nc4ccccc4o3)c(Br)n12,"inconclusive: 4.61 µM [activator, single point]"
